Data on 64 molecules can be found in PubChem BioAssay AID493014 (National Center for Advancing Translational Sciences (NCATS), 2011).

The nature of this assay: qHTS Assay to Find Inhibitors of Chronic Active B-Cell Receptor Signaling. Conditions: ABC-DLBCL IkBa-CBG/CBR reporter, luminescence ratio (green luciferase fused to IkBa over red control in TMD8 lymphoma cells), 4 h. Summed up:
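TMD8 ABC-DLBCL cells carrying doxycycline-inducible green luciferase fused to IkappaBalpha plus unfused red luciferase were exposed to compounds (up to 46 uM) for 4 hrs at 37C. Activity came from the overlap-corrected green/red luminescence ratio.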

Setting [1] is: measured here: CBR red luminescence, cell number.
The mark [2] stands for this setting: measured here: IkBa-CBG green luminescence.

This is one part of the list. These are further read-outs of the screen, such as a control signal, another cell line or another target. No call is given for them. Most of these compounds were active or inconclusive in the main read-out, so they are no random draw. Words in brackets tell the shape of the fitted curve; partial curves, single points and poor fits give uncertain potencies.

In the case of `Cn1c(=O)c2c(nc(CN3CCCCC3)n2Cc2c(F)cccc2Cl)n(C)c1=O`, the concentration at half-maximal activity (AC50) under setting [1] is 25.1 µM [rising, single point].
Take `Cc1cccc(Cn2c(SCCO)nc3c2c(=O)n(C)c(=O)n3C)c1`: the AC50 under setting [1] was 2.24 µM [falling, partial curve, poor fit].
`CCOC(=O)C1=C(C)NC(=S)NC1c1ccc(-c2ccc(Cl)cc2)o1` (stereo not given): the concentration at half-maximal activity (AC50) under setting [1] is 32.6 µM [falling, partial curve, poor fit].
Regarding `CC1=NN(c2cccc(C(=O)O)c2)C(=O)/C1=C\C=C\c1ccco1`, the AC50 under setting [1] is 29.1 µM [falling, single point].
As for `O=C(O)C1C2C=CC(C3CC23)C1C(=O)O` (stereo not given), the AC50 under setting [1] is 20.6 µM [rising, partial curve, poor fit].
On to `O=C(NCc1ccccc1Cl)c1cccc(C(F)(F)F)c1`, for which the AC50 under setting [1] is 0.82 µM [rising, partial curve, poor fit].
On the same count and under the same terms, the figure for `COc1c(F)c(F)c(C(=O)Nc2ccc(NC(=O)c3ccco3)cc2)c(F)c1F` is 1.64 µM [rising, partial curve, poor fit]; for `CCOC(=O)CCC(NC(=O)CCCCCCCCC(=O)NC(CCC(=O)OCC)C(=O)OCC)C(=O)OCC` (stereo not given) it is 18.4 µM [rising, partial curve].
As for `CCN(CC)c1nc2ccccc2n(Cc2cccc(OC)c2)c1=O`, under setting [1], the AC50 is 35.5 µM [rising, single point].
Consider `N/C(=N\OC(=O)CCC1CCCC1)c1ccccn1`, for which the half-maximal activity concentration (AC50) under setting [1] was 2.59 µM [rising, partial curve].
Still for that read-out and setting: the value for `Cc1cccc(C(=O)N/N=C/c2ccncc2)c1` was 7.94 µM [falling, partial curve]; that for `CN(Cc1ccccc1)CC(O)COc1ccc(CNCc2cc3ccccc3s2)cc1` (stereo not given) was 35.5 µM [falling, single point].
In the case of `C=C(C)CN(CC)c1nc(N)c2c(N)nc3c(c2c1C#N)CC(=O)N3C12CC3CC(CC(C3)C1)C2`, the half-maximal activity concentration (AC50) under setting [1] is 6.51 µM [falling, single point].
For the molecule `Cc1ccc(NC(=O)COC(=O)c2ccc(-n3cccn3)cc2)cc1C`, the concentration at half-maximal activity (AC50) under setting [1] was 0.13 µM [falling, full curve, poor fit].
Consider `COc1ccc(/C=C2\SC(=S)N(CCCC(=O)N3CCN(C)CC3)C2=O)cc1`, for which the AC50 under setting [1] is 3.98 µM [falling, full curve, poor fit].
For `O=C(Nc1ccccc1)c1ccc(-c2ccc(F)cc2)s1`, the concentration at half-maximal activity (AC50) under setting [1] was 2.24 µM [falling, full curve].
For `CCOc1ccccc1NC(=O)CC1Nc2ccccc2NC1=O` (stereo not given), under setting [1], the concentration at half-maximal activity (AC50) is 10.3 µM [falling, partial curve].
On to `CCNC(=O)c1ccccc1-c1nc(-c2ccccc2OC)no1`, for which, under setting [1], the AC50 is 0.891 µM [rising, full curve, poor fit].
For `CCOC(=O)/C(=N\Nc1ccc(Br)cc1)N1CC(C)OC(C)C1` (stereo not given), the concentration at half-maximal activity (AC50) under setting [1] is 12.6 µM [rising, single point].
With `O=c1[nH]c(Nc2ccccc2)cc2ccccc12`, the AC50 under setting [1] was 1.12 µM [falling, full curve, poor fit].
In the case of `O=C(CSC1=NCCS1)Nc1ccccc1F`, the AC50 under setting [1] was 12.6 µM [falling, partial curve, poor fit].
With `Cc1ccc(NC(=O)C2CCCC2)cc1S(=O)(=O)N1CCOCC1`, the half-maximal activity concentration (AC50) under setting [1] was 25.9 µM [rising, partial curve, poor fit].
Turning to `COc1cc(CNCCO)cc(Br)c1OCc1ccccc1Cl`, the half-maximal activity concentration (AC50) under setting [1] was 31.6 µM [falling, single point].
Same read-out and setting: the figure for `COc1ccccc1N1CCN(C(=S)Nc2ccc3nc(N4CCOCC4)cc(C)c3c2)CC1` is 35.5 µM [falling, single point]; for `O=c1c2cc(N3CCOCC3)ccc2[nH]c(=S)n1CCCN1CCN(c2ccccc2F)CC1` it is 29.1 µM [rising, single point]; for `CC(=O)NCC(=O)NC(C(=O)Nc1ccc2c(c1)OCCO2)c1ccccc1` (stereo not given) it is 29.1 µM [rising, single point].
`CSc1cc(C)n(-c2ccccc2)c(=S)c1C(C)=O`: the concentration at half-maximal activity (AC50) under setting [1] was 29.1 µM [rising, single point].
With `Cc1cc(/C=N/Nc2ccc([N+](=O)[O-])cn2)c(C)n1-c1ccccc1`, the half-maximal activity concentration (AC50) under setting [1] is 6.51 µM [rising, full curve, poor fit].
Turning to `CC(C)(C)n1nc(-c2ccc(F)cc2)c2c(N)ncnc21`, the concentration at half-maximal activity (AC50) under setting [1] was 4.11 µM [falling, full curve, poor fit].
Same read-out and setting: the figure for `Cc1cc(OCC(=O)N(Cc2ccco2)C2CCS(=O)(=O)C2)ccc1Cl` (stereo not given) is 8.91 µM [falling, partial curve]; for `Cc1cc(C)n(-c2nc3ccccc3nc2N2CCN(C(=O)c3ccccc3)CC2)n1` it is 23.1 µM [rising, partial curve, poor fit].
Same read-out and setting: the figure for `Cc1cc(C(=O)N/N=C2/CC(C)CC(C)(C)C2)c(C)o1` (stereo not given) is 7.08 µM [falling, partial curve].
The same measure, in the same setting: the figure for `COc1cc(C(C)=O)ccc1Oc1cc(NN2CCCCC2)c([N+](=O)[O-])cc1[N+](=O)[O-]` is 2.51 µM [rising, full curve, poor fit]; for `COc1cc2sc3cc(NCCCN4CCOCC4)ccc3c(=O)c2cc1OC` it is 6.51 µM [falling, single point]; for `CCCN(CCC)CCNC(=O)c1cc2c(-c3ccccc3F)nn(C)c2s1` it is 6.31 µM [falling, full curve].
As for `Nc1c(C(=O)c2ccc(Br)cc2)oc2ccccc12`, the AC50 under setting [1] is 1.64 µM [rising, partial curve].
Consider `CCC(C)NC(=O)CC(NS(=O)(=O)c1ccc(C)cc1)c1ccc(OC)cc1` (stereo not given), for which the AC50 under setting [1] is 0.00411 µM [rising, full curve, poor fit].
For `CCOc1ccc(C=NNc2ccc(S(=O)(=O)Nc3ccccc3C(=O)O)cc2[N+](=O)[O-])cc1`, the half-maximal activity concentration (AC50) under setting [1] was 29.1 µM [rising, single point].
`C/C(=N\Nc1ncc(Cl)cc1Cl)c1ccc2c(c1)OCO2`: the concentration at half-maximal activity (AC50) under setting [1] was 0.2 µM [rising, full curve, poor fit].
As to `COc1ccc(N/C=C2/Sc3ccccc3NC2=O)cc1`, the half-maximal activity concentration (AC50) under setting [1] is 12.6 µM [falling, partial curve, poor fit].
Regarding `COc1cccc(C(=O)Nc2nnc(-c3cccs3)o2)c1`, the AC50 was 12.6 µM [falling, partial curve] under setting [1] and 12.6 µM [falling, single point] under setting [2].
Regarding `COc1cc2c(cc1NC(=O)COC(=O)CNC(=O)c1ccccc1)oc1ccccc12`, under setting [1], the concentration at half-maximal activity (AC50) was 0.447 µM [rising, full curve, poor fit].
For `COc1ccc2o/c(=N/NC(=S)Nc3ccccc3)c(C(N)=O)cc2c1`, the AC50 under setting [1] was 0.58 µM [falling, full curve, poor fit].
For the molecule `O=C(NCCN1CCOCC1)c1ccc(/C=C2\Sc3ccccc3N(Cc3ccc(F)cc3)C2=O)cc1`, under setting [1], the AC50 was 35.5 µM [falling, single point].
Still for that read-out and setting: the figure for `COc1cc(N=Nc2ccccc2C(=O)O)ccc1O` is 10 µM [rising, partial curve, poor fit].
As to `FC(F)(F)c1cc(CCN2C(=S)NC[C@@H]2Cc2ccccc2)cc(C(F)(F)F)c1`, the concentration at half-maximal activity (AC50) under setting [2] was 35.5 µM [rising, partial curve, poor fit].
In the case of `Cc1ccc(S(=O)(=O)NNC(=O)Nc2ccc(Cl)c(Cl)c2)cc1`, the concentration at half-maximal activity (AC50) under setting [1] was 12.6 µM [rising, partial curve, poor fit].
Consider `CC1(NC(=O)COc2ccccc2-c2ccccc2)CCS(=O)(=O)C1` (stereo not given), for which, under setting [1], the half-maximal activity concentration (AC50) is 0.731 µM [falling, partial curve, poor fit].
Regarding `CCOc1ccc2nc(N3C(=O)C(O)=C(C(=O)c4ccco4)C3c3ccco3)sc2c1` (stereo not given), under setting [1], the concentration at half-maximal activity (AC50) was 0.58 µM [rising, full curve, poor fit].
On to `COc1ccccc1COCC(O)CNCCc1ccc(C(F)(F)F)cc1` (stereo not given), for which, under setting [1], the concentration at half-maximal activity (AC50) was 35.5 µM [falling, single point].
As for `O=C(/C=C/c1ccco1)Oc1ccc(C(=S)N2CCOCC2)cc1`, under setting [1], the concentration at half-maximal activity (AC50) is 22.4 µM [rising, partial curve, poor fit].
Take `CCc1ccc(NC(=O)c2cc(CC(C)C)on2)cc1`: the AC50 under setting [1] is 9.2 µM [rising, partial curve, poor fit].
`CCOc1ccc(OCc2cccc(C(=O)N3CCOCC3)c2)cc1`: the AC50 under setting [1] was 29.1 µM [falling, single point].
For `CC(=O)Nc1ccc(OCCOc2ccc(/C=C3\C(=N)N4N=C(C)SC4=NC3=O)cc2)cc1`, the AC50 under setting [1] is 35.5 µM [rising, single point].
Regarding `CC(C)COc1nc2c(c(=O)n(C)c(=O)n2C)n1C`, the concentration at half-maximal activity (AC50) under setting [1] was 1.26 µM [falling, full curve, poor fit].
For the molecule `COc1ccc(CCNC(=O)C(=O)c2cn(CC(=O)N3CCOCC3)c3ccccc23)cc1`, the concentration at half-maximal activity (AC50) under setting [1] was 2.24 µM [falling, full curve].
For the molecule `Cc1ccccc1NC(=O)c1cccc(S(=O)(=O)N2CCCCC2)c1`, the AC50 under setting [1] was 5.62 µM [rising, single point].
As for `CC1CC(OCC(O)CN2CCOCC2)CC(C)(C)C1` (stereo not given), the concentration at half-maximal activity (AC50) under setting [1] was 14.6 µM [rising, partial curve, poor fit].
Take `CCOC(=O)c1c(-c2ccc(C)s2)csc1N`: under setting [1], the AC50 is 15.8 µM [falling, single point].
Take `S=C(c1ccc2c(c1)OCO2)N1CCCCC1`: under setting [1], the concentration at half-maximal activity (AC50) was 4.11 µM [rising, full curve, poor fit].
Same read-out and setting: the value for `COc1ccc(C(C(O)C(=O)c2c[nH]c3ccccc23)N2CCN(c3ccccc3)CC2)cc1` (stereo not given) was 18.4 µM [falling, single point].
`CCn1c(=O)c([N+](=O)[O-])c(NCc2ccc3c(c2)OCO3)c2ccccc21`: under setting [1], the AC50 is 12.6 µM [falling, partial curve, poor fit].
As to `COc1ccc(/[N+]([O-])=C/c2ccoc2)cc1`, the concentration at half-maximal activity (AC50) under setting [1] was 6.51 µM [rising, single point].
For the molecule `Cc1ccc(S(=O)(=O)Nc2cccc(-c3ccc(N4CCCCCC4)nn3)c2)cc1C`, under setting [1], the AC50 was 25.1 µM [rising, single point].
